# In PubChem BioAssay (Tox21):
# Chains of the proteins cited; added tags and fusions are not shown.
# UniProt P11712, whole entry, looked up: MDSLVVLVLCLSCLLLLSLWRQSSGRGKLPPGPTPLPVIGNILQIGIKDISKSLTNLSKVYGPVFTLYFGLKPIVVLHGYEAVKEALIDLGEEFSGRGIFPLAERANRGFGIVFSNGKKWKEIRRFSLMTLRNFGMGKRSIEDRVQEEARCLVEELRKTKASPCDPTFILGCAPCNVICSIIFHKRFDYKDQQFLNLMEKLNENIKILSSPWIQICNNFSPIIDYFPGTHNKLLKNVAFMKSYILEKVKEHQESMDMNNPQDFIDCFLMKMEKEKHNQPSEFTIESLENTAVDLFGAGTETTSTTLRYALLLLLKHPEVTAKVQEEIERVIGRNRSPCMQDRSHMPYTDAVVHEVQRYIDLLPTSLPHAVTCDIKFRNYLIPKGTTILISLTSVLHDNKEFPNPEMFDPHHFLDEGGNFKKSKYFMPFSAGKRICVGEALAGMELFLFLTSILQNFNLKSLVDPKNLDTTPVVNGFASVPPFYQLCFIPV
# UniProt P05177, whole entry, looked up: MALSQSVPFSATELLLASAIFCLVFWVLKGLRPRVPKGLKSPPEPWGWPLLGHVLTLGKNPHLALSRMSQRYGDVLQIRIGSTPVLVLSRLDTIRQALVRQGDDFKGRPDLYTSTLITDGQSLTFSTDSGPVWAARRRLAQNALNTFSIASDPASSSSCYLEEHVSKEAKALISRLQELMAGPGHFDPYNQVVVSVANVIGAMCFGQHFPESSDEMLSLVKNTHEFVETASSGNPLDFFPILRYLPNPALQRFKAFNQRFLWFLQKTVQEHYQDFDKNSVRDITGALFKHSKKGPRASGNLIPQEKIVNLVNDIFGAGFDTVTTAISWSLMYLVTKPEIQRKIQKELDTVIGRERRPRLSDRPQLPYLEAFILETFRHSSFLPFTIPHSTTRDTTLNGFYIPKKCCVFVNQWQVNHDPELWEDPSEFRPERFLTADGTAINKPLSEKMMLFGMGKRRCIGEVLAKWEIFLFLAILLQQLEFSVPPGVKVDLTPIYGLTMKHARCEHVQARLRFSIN
# Several values for one entry are separate records, joined by “and”; a condition that tells them apart may be missing. Identical values can stand only once. The inconclusive results got no clear call from the source; some entries with a clear call stand among them for comparison. A potency beside an inconclusive call is a rough fit, not a confirmed value. Where a structure was tested more than once in an assay, its records may differ in their call. Activity calls are given as the source filed them. The call rests on the fitted dose curve; in most records, active means well fitted inhibition curve with a large enough effect in the repeat runs; inconclusive means weak or mixed curves; inactive means no such curve, though single readings can be large or run the other way.
# Key:
# [1] = biological target: Cytochrome P450 2C9 (Homo sapiens) (UniProt P11712); assay: Cytochrome P450 Family 2 Subfamily C Member 9 (CYP2C9) small molecule antagonists: luciferase reporter qHTS assay (AID 1671198)
# How it was run: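 P450-Glo proluciferin substrate with CYP2C9 enzyme; 10 min RT preincubation, then NADPH regeneration 1 h at 37C; luciferin detection reagent 20 min RT, luminescence in relative luminescence units.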
# [2] = biological target: Cytochrome P450 1A2 (Homo sapiens) (UniProt P05177); assay: Cytochrome P450 Family 1 Subfamily A Member 2 (CYP1A2) small molecule antagonists: luciferase reporter qHTS assay (AID 1671199)
# How it was run: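 Signal from luciferin formed by CYP1A2 from a proluciferin substrate is read as luminescence, expressed in relative luminescence units. Compounds sit with enzyme 10 min, NADPH-driven reaction runs 1 h, all at room temperature.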
# Further: nearly all actives have a fitted effect of over 50% in size.
# Potency means the concentration at half of the fitted maximal effect.
SMILES,Potency [1],Potency [2]
CCC1(CC)C(=O)N=C(O)NC1=O,inactive,
NCc1cccnc1,inactive,"inconclusive: 35.6 µM [inhibitor, partial curve]"
[CH3][Sn]([Cl])([Cl])[Cl],"inactive and inconclusive: 56.4 µM [inhibitor, partial curve, poor fit]","inconclusive: 72.5 µM [inhibitor, partial curve]"
BrCBr,inactive,
N#Cc1cc([N+](=O)[O-])ccc1N,inactive,
COP(=S)(OC)Oc1ccc([N+](=O)[O-])c(C)c1,active: 7.1 µM,
C[C@]12C=CC(=O)C=C1CC[C@@H]1[C@@H]2CC[C@@]2(C)[C@H]1CC[C@]2(C)O,inconclusive: 34.7 µM [inhibitor],inactive
C=C1CC[C@@]2(O)[C@H]3Cc4ccc(O)c5c4[C@@]2(CCN3CC2CC2)[C@H]1O5,inactive,
CCOCN(C(=O)CCl)c1c(C)cccc1CC,active: 30 µM and active: 39.9 µM,active: 33.6 µM and inactive
CCCN(CCCl)c1c([N+](=O)[O-])cc(C(F)(F)F)cc1[N+](=O)[O-],active: 20 µM,
ClCc1ccccn1,inconclusive: 87.7 µM [inhibitor],"inconclusive: 69.7 µM [inhibitor, partial curve, poor fit]"
O=C(Cl)c1ccccc1,"inconclusive: 46.1 µM [inhibitor, partial curve, poor fit]",
Cc1ccccc1N,"inconclusive: 62.9 µM [inhibitor, partial curve]","inconclusive: 71 µM [inhibitor, partial curve]"
C=CC(=O)OCCCCO,inactive,"inconclusive: 63.3 µM [inhibitor, partial curve]"
c1cncc([C@@H]2CCCCN2)c1,"inconclusive: 44.8 µM [inhibitor, partial curve, poor fit]","inconclusive: 63.3 µM [inhibitor, partial curve, poor fit]"
C[C@]12CC[C@H]3[C@@H](CC[C@@]45O[C@@H]4C(O)=C(C#N)C[C@]35C)[C@@H]1CC[C@@H]2O,"inconclusive: 50.2 µM [inhibitor, partial curve] and inactive","inconclusive: 79.6 µM [inhibitor, single point] and inactive"
C=CCc1ccc2c(c1)OCO2,"inactive and inconclusive: 89.4 µM [inhibitor, partial curve, poor fit]","inconclusive: 35.7 µM [inhibitor, partial curve]"
C=CC(C)=O,inactive,"inconclusive: 61.8 µM [inhibitor, partial curve]"
CN=C=S,"inconclusive: 56.9 µM [inhibitor, partial curve, poor fit]","inconclusive: 135 µM [inhibitor, partial curve, poor fit]"
Oc1cc(Cl)ccc1Cl,inactive,active: 36.6 µM and active: 31.7 µM
BrCCCBr,inactive,"inconclusive: 62.9 µM [inhibitor, partial curve, poor fit]"
CC1=C(C(=O)Nc2ccccc2)SCCO1,"inconclusive: 72.1 µM [inhibitor, partial curve]",active: 12.8 µM and active: 12.6 µM
ClCCBr,"inconclusive: 89.1 µM [inhibitor, partial curve, poor fit]","inconclusive: 63.1 µM [inhibitor, partial curve]"
CSC1=N[C@@](C)(c2ccccc2)C(=O)N1Nc1ccccc1,active: 35.6 µM,"inconclusive: 39.9 µM [inhibitor, partial curve]"
Fc1cccc(Cl)c1CCl,inactive,active: 39.9 µM
CO[C@@H]1[C@H](OC(=O)NC(=O)CCl)CC[C@]2(CO2)[C@H]1[C@@]1(C)O[C@@H]1CC=C(C)C,"inconclusive: 17.3 µM [inhibitor, partial curve]","inconclusive: 9.75 µM [inhibitor, full curve]"
O=[N+]([O-])c1ccccc1O,inactive,"inconclusive: 39.8 µM [inhibitor, partial curve, poor fit] and inconclusive: 50.2 µM [inhibitor, partial curve] and inconclusive: 71 µM [inhibitor, partial curve, poor fit]"
